The results in this text go back to article PMC7819943, “Rice protein-binding microarrays: a tool to detect cis-acting elements near promoter regions in rice”.

Some of the results follow.

In this assay the target is T1, OsSMF1 (Oryza sativa, UniProt Q6ZLB0 1-436).
T1 sequence: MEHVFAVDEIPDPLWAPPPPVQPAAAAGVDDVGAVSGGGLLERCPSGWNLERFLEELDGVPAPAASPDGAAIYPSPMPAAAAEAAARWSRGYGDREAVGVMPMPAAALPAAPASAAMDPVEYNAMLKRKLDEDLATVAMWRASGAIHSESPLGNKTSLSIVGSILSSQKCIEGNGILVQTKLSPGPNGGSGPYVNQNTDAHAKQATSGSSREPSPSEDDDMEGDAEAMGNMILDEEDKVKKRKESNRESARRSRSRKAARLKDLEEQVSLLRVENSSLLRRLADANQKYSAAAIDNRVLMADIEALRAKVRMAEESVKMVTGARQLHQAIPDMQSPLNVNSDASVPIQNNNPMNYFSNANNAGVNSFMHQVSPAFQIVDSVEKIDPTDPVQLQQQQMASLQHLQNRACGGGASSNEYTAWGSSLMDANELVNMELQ
Kind of assay: protein-binding microarray (RPBM); PBS, 2% BSA, 51.3 ng/ul salmon testes DNA, 50 uM zinc acetate, 200 nM TF, 25 C, 1 h; high values mean tight binding. The conditions noted are these: protein: recombinant; tags: N-terminal polyhistidine and DsRed monomer fusion (pET32a); chain copies: 2; label: CyDye5-dUTP incorporated in the synthesized complementary strand; 3' TTTTT single-stranded linker to array surface; dsDNA, one strand shown. Summed up:
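Per-feature fluorescence intensity (arbitrary units), read on an Axon 4000B scanner, is the binding signal. Transcription factors carrying an N-terminal polyhistidine tag and DsRed fusion were expressed in E. coli BL21-CodonPlus and purified on Ni–NTA. A custom Agilent array, made double-stranded by primer extension with Cy5-dUTP and blocked with 2% BSA, was incubated with 200 nM protein in PBS, 2% BSA, salmon testes DNA and 50 µM zinc acetate at 25 °C for 1 h and then washed.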
For “AACCCTCTTCAAGTACACGCGACACCGCTCGTCTTCGTCACGGAGTCACCTAGTGCAG”, the binding signal was 3450 fluorescence intensity (a.u.).
Regarding “GCTCCCAGGCGCGCCACCCCTTGCTCCTCGGCCACGCGGGCGGAGTCACCTAGTGCAG”, the binding signal was 3260 fluorescence intensity (a.u.).
In the case of “CATGTTTGAAATTTGAAAACAACAATATGTGTTCGTGTGTCGGAGTCACCTAGTGCAG” it was 29300 fluorescence intensity (a.u.); in that of “AGATCCTAAACCGACCTAAGCAGTGGTGTGAATGGTGACTCGGAGTCACCTAGTGCAG”, 4210 fluorescence intensity (a.u.).
Consider “TGTTAGTTTTGCATGCACAGAGATGATTAGGCAGTAGCAACGGAGTCACCTAGTGCAG”, for which the binding signal was 3940 fluorescence intensity (a.u.).
With “TCATTTTAGCGTTGTGGTCATGGATGGCGTCCTTGATCACCGGAGTCACCTAGTGCAG”, the binding signal was 4400 fluorescence intensity (a.u.).
Turning to “ATATACGGAACCCACAGAATTCAACAACGAACTCCTACTTCGGAGTCACCTAGTGCAG”, the binding signal was 4040 fluorescence intensity (a.u.).
With “CCGAAGTCACAGAGTATGTACAGACGACGACGTGTGCATCCGGAGTCACCTAGTGCAG” the figure was 3840 fluorescence intensity (a.u.); with “TAATTACCAAATAAGAACAGGTAGACTATTAGTCAGCTACCGGAGTCACCTAGTGCAG”, 4300 fluorescence intensity (a.u.).
With “GTCACCAGTGACGCTACAACCAATCAATCTCGAGCTCTCCCGGAGTCACCTAGTGCAG” the figure was 6300 fluorescence intensity (a.u.).
In the case of “TAAGCATTAGGGGCAAATTGGTCATTTGACCCACAAGACCCGGAGTCACCTAGTGCAG” it was 4710 fluorescence intensity (a.u.); in that of “CACAAGGACTAGAACCACAAAATCCATGTCATTGGCCATGCGGAGTCACCTAGTGCAG”, 4050 fluorescence intensity (a.u.).
With “GACTAGCCTCCTCGGTGAATCATCTGTTGGCGTGGTCGGTCGGAGTCACCTAGTGCAG”, the binding signal was 4260 fluorescence intensity (a.u.).
Turning to “AAGCTGCCTGCCTTTCGTTTTCCAGCTTCCAACGCGATCTCGGAGTCACCTAGTGCAG”, the binding signal was 12600 fluorescence intensity (a.u.).
With “CATGAAATTTCAAAAGCCTAAAACCTTTGGACATGTCATTCGGAGTCACCTAGTGCAG” the figure was 3340 fluorescence intensity (a.u.); with “TCATTCCCTCCGTACCATTATGTTTGGGTTCTGTTGTGCTCGGAGTCACCTAGTGCAG”, 3650 fluorescence intensity (a.u.).
With “ATTTATATTTTAAAATATACTTTTATATGACACTAATTTTCGGAGTCACCTAGTGCAG” the figure was 3170 fluorescence intensity (a.u.).
In the case of “GATATTTCCACTCCACTCCACGCAATCACCGTCCACCTGCCGGAGTCACCTAGTGCAG”, the binding signal is 3420 fluorescence intensity (a.u.).
For “GGTTGGGTGGCAGTTACTGCCAACCTTACCTGCTGCCACCCGGAGTCACCTAGTGCAG”, the binding signal was 3300 fluorescence intensity (a.u.).
With “GAGTGTATTGTCATGCATGCATGGTAGTATACTATGGTAGCGGAGTCACCTAGTGCAG” the figure was 4460 fluorescence intensity (a.u.).
On to “CTGATCTTCGGATCGGCACCGCGAAAAGGAAACTTGCCCCCGGAGTCACCTAGTGCAG”, for which the binding signal is 3580 fluorescence intensity (a.u.).
Turning to “TATCGTGGCCACACCTTCGTGAGCTCTGCCTTTATTAGTTCGGAGTCACCTAGTGCAG”, the binding signal is 3220 fluorescence intensity (a.u.).
Consider “GACGCTCACGCTGACGCTGCTGCCTGGAATCACGTCTTGCCGGAGTCACCTAGTGCAG”, for which the binding signal is 4770 fluorescence intensity (a.u.).
With “CGGCACATCTCACAACGCAAAGCTTTAGCGCCGGAAACTGCGGAGTCACCTAGTGCAG”, the binding signal was 4390 fluorescence intensity (a.u.).
With “CCATCTCTATATGTGACTCATAATAGTGTAAAAGCTCATCCGGAGTCACCTAGTGCAG” the figure was 7430 fluorescence intensity (a.u.); with “CTCACATACCCTCTCACAATCTCACGTCACCTCCGCCGTCCGGAGTCACCTAGTGCAG”, 5560 fluorescence intensity (a.u.); with “AAAACTGGCGGACGTGCACCAGATCCAATGACGCGACGCCCGGAGTCACCTAGTGCAG”, 4180 fluorescence intensity (a.u.).
“CACCACAAGGAACCTAATCAGCTCACTTCGTCACGTGCATCGGAGTCACCTAGTGCAG”: the binding signal was 3640 fluorescence intensity (a.u.).
With “ATCTAAGAATTAAGAAAGACAGGTGTTTGATGTTTGATGACGGAGTCACCTAGTGCAG” the figure was 3210 fluorescence intensity (a.u.); with “GTGCCAATGGATGTGACATATGCATAGACATAAATAAGCACGGAGTCACCTAGTGCAG”, 3220 fluorescence intensity (a.u.); with “AAGTAAATGTAGATAAGGCCGTGTAATAAAGGTTGCTAGTCGGAGTCACCTAGTGCAG”, 56800 fluorescence intensity (a.u.).
With “TTGTACAGGTGGGAATGAGGCACGAGAATCTGACCTGTTACGGAGTCACCTAGTGCAG” the figure was 3930 fluorescence intensity (a.u.).
In the case of “TTGGTTACAGCCCATTGACGGGCATCACATGCTGACTCGACGGAGTCACCTAGTGCAG”, the binding signal was 6200 fluorescence intensity (a.u.).
In the case of “GTTAGACATGAACAGTGCTAAAACTGTACTTATTTTGGGACGGAGTCACCTAGTGCAG” it was 24300 fluorescence intensity (a.u.); in that of “GCAAGCATGAACTCTACATGCATGATGCAGCAAGAGAGCGCGGAGTCACCTAGTGCAG”, 3860 fluorescence intensity (a.u.).
With “TCTTCCTCTCCATATGGATATGACATCACACTCTTCCTGACGGAGTCACCTAGTGCAG” the figure was 8280 fluorescence intensity (a.u.); with “ATTCAAGAACTCGATCGAGGAGGGCCAAGAAAGGTGTGAGCGGAGTCACCTAGTGCAG”, 29600 fluorescence intensity (a.u.).
On to “TCGCACCAAGAATTGTTCACCTACCTTCAAAGTTCCAACACGGAGTCACCTAGTGCAG”, for which the binding signal is 63300 fluorescence intensity (a.u.).
In the case of “AGTTTAAAGATTGATTTAGATTTAGATTCCACGTAATCGCCGGAGTCACCTAGTGCAG”, the binding signal is 7680 fluorescence intensity (a.u.).
For “CCCACCTCCGCCACCGCCGCTGCCACCCCAGCACACCGCCCGGAGTCACCTAGTGCAG”, the binding signal was 3800 fluorescence intensity (a.u.).
With “CTGCACGAGGATGAGGCGGCCGAGGCGGGATTTGCCATCTCGGAGTCACCTAGTGCAG” the figure was 3340 fluorescence intensity (a.u.); with “AGCATGTGCATAAAACCTCTGTTGGGAGGATCCATCTTATCGGAGTCACCTAGTGCAG”, 35300 fluorescence intensity (a.u.); with “CCATGCACTAAATTAAATGAGTAGGCATCGGCTCTGCTGACGGAGTCACCTAGTGCAG”, 4070 fluorescence intensity (a.u.).
Consider “TTCAATGCTTCCTCAACATATGCGTCAGCCTGGGCATATGCGGAGTCACCTAGTGCAG”, for which the binding signal was 6850 fluorescence intensity (a.u.).
With “AACTTTGCGGCCTCCTCTTGGACGATGGAGTCATGATGGGCGGAGTCACCTAGTGCAG” the figure was 28100 fluorescence intensity (a.u.); with “CCTTGAGAGCTGGAGCCTGGACCTGGAGGAGCGGTGCGTTCGGAGTCACCTAGTGCAG”, 29100 fluorescence intensity (a.u.); with “GCGCATTCCGCCTACGTGGCCTCGCCTCCGCCTCCGGTTCCGGAGTCACCTAGTGCAG”, 15500 fluorescence intensity (a.u.).
Turning to “TAGTCCAGCAAAACTAGCCCAAACTATCCTTCAACCCGTGCGGAGTCACCTAGTGCAG”, the binding signal is 3190 fluorescence intensity (a.u.).
For “GCTTGCTCGCCGGCGGTGTGGGAATGATGACTCCCAGCCCCGGAGTCACCTAGTGCAG”, the binding signal is 4050 fluorescence intensity (a.u.).
Consider “TTTCGCAATTATATTGATGCAGAAATCAGCAGCTCACAATCGGAGTCACCTAGTGCAG”, for which the binding signal is 20700 fluorescence intensity (a.u.).
“GAAGATAACGTGTTAGATTGTCTGCACTGTTACGTCAGCACGGAGTCACCTAGTGCAG”: the binding signal is 7440 fluorescence intensity (a.u.).
In the case of “TCATAGTACTTGAGTCCATGACATCACCCTAGTCAACTCACGGAGTCACCTAGTGCAG” it was 3440 fluorescence intensity (a.u.); in that of “CGTGCATATAACATCTGCGTCGGTAGGCGTACGTGGAGACCGGAGTCACCTAGTGCAG”, 5050 fluorescence intensity (a.u.); in that of “CCAGTAGAACATATATAGGGCCTACTGACCTTACTACTCCCGGAGTCACCTAGTGCAG”, 37100 fluorescence intensity (a.u.).
